Measured values taken from PMC6856805, “Environmental Risk Assessment for the Active Pharmaceutical Ingredient Mycophenolic Acid in European Surface Waters” (Environmental Toxicology and Chemistry, 2019).

What was measured:
[1] = OECD test guideline 314B activated sludge biodegradation simulation test
Source text: Mineralization comprises evolved CO2 (detected in the traps) as well as CO2 dissolved in the sludge. The latter was highest at day 2 and decreased afterward, whereas the amount of evolved CO2 increased continuously until the end of the study. […] At no time point was a noteworthy amount of radioactivity (>2% iRR throughout the test period) detected in the liquor after extraction. Radioactivity in the solids extract was highest at day 0 (5.5% iRR) and decreased afterward to 0.3% iRR after 28 d.
Based on this k biodeg and physicochemical properties for MPA, SimpleTreat 4.0 (Struijs 2015) calculated a removal of 12% in STPs, mostly through biodegradation (0.27% in the primary settler and 11.5% in the aeration tank), with a small fraction of 0.13% adsorbed to sludge, in agreement with the OECD test guideline106 (Organisation for Economic Co‐operation and Development 2000) adsorption results mentioned in the previous paragraph (V. Halász‐Laky, unpublished data). However, when the k biodeg data developed by Franquet‐Griell et al. (2017a) were entered in the sequencing batch reactor for k biodeg of 0.0017 min^–1 in the first cycle, SimpleTreat calculated a removal of 43.6% in STPs (0.272% biodegradation primary settler, 43.24% aeration tank; 0.080% adsorbed); for k biodeg in the fifth cycle of 0.006 min^–1, SimpleTreat calculated a removal of 73.1% in STPs (0.272% primary settler, 72.77% aeration tank; 0.0373% adsorbed; Struijs 2015). A high degradation rate is supported by data from Franquet‐Griell et al. (2017b), who measured STP influents and effluents and compared solid phase extraction and macroporous ceramic passive samplers in Spain. The STP in question treats 65% of the wastewaters from Barcelona and surroundings (2 843 750 inhabitant equivalents) and receives urban waters, effluents from 3 large hospitals, and industrial waters; the STP performs biological treatment without nitrogen and phosphorus removal. Based on substance concentrations in effluent and influent, removal rates of >90% emerged for MPA (Franquet‐Griell et al. 2017b).
The OECD 314 B activated sludge degradation test (Junker & Herrchen 2017) fulfilled all quality and validity criteria. Specifically, the radioactivity measured at day 0 in the test vessels was 7412.5 dpm/mL (112.7% of nominal; replicate A) and 7457.0 dpm/mL (113.3% of nominal; replicate B), corresponding to a test item concentration of 22.5 and 22.7 μg/L, respectively. The mean recovery per sampling time point relative to nominally applied radioactivity (aR) was between 104.6% aR (day 28) and 114.5% aR (day 2), while the overall mean recovery for all sampling time points was 108.7±4.0% aR. The mean recovery per sampling time point relative to initially recovered radioactivity (iRR) was between 92.6% iRR (day 28) and 101.3% iRR (day 2), while the overall mean recovery for all sampling time points was 96.2±3.5% iRR.

[2] = River sediment/water fate test (US FDA Guideline 3.11) with 14C-MPM; settings: for 50% disappearance time (DT50): river water/sediment systems; for applied 14C activity bound to sediment / applied 14C activity remained in water / applied 14C activity trapped as 14CO2: end of test (64 d)
[3] = set-up: method as in Franquet‐Griell et al. (2017a); settings: ref Franquet‐Griell et al. (2017a), cited from earlier work
[4] = Influent/effluent removal in industrial activated sludge STP at a Roche production site; settings: for average removal in STP / median removal in STP: all 8 measurements; for negative removal in STP: one weekly sample

COc1c(C)c2c(c(O)c1C/C=C(\C)CCC(=O)O)C(=O)OC2 [^14C‐MPA, Mycophenolic acid, [carboxyl‐14C]]
radioactivity in the solids extract ([1]; after 28 d): 0.3 % iRR
radioactivity in liquor extracts ([1]; day 0): 82.5 % iRR
radioactivity in the solids extract ([1]; day 0): 5.5 % iRR
nonextractable residues ([1]; day 2): 10.2 % iRR
mineralization ([1]; day 28): 82.2 % iRR
nonextractable residues ([1]; day 28): 7.3 % iRR
radioactivity in liquor extracts ([1]; end of the test): 1.2 % iRR
50% disappearance time (DT50) [2]: approximately 14 d

COc1c(C)c2c(c(O)c1C/C=C(\C)CC[14C](=O)OCCN1CCOCC1)C(=O)OC2 [carboxyl‐^14C‐labeled MPM]
applied 14C activity bound to sediment ([2]; 1 mg/L dosing): 17.6%
applied 14C activity remained in water ([2]; 1 mg/L dosing): 4.8%
applied 14C activity trapped as 14CO2 ([2]; 1 mg/L dosing): 58.9%
applied 14C activity bound to sediment ([2]; 5 mg/L dosing): 20.3%
applied 14C activity remained in water ([2]; 5 mg/L dosing): 6.7%
applied 14C activity trapped as 14CO2 ([2]; 5 mg/L dosing): 60.2%

COc1c(C)c2c(c(O)c1CC=C(C)CCC(=O)O)C(=O)OC2 [MPA, 6‐(1,3‐dihydro‐4‐hydroxy‐6‐methoxy‐7‐methyl‐3‐oxo‐5‐isobenzofuranyl)‐4‐methyl‐4‐hexenoic acid]
MPA detected after 24 h ([3]; fifth cycle): no MPA at all was detected
MPA still detected after 48 h ([3]; first cycle): approximately 58%
average removal in STP [4]: 52%
median removal in STP [4]: 83%
negative removal in STP [4]: –73%

COc1c(C)c2c(c(O)c1C/C=C(\C)CCC(=O)OCCN1CCOCC1)C(=O)OC2 [MPM, mycophenolate mofetil]
50% disappearance time (DT50) [2]: < 2 days
average removal in STP [4]: 52%
median removal in STP [4]: 83%
negative removal in STP [4]: –73%
